Source: doi:10.1371/journal.pone.0140310, primary screening data, rounded.

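Human melanoma cell lines in 1,536-well plates were treated with two drugs together for 72 h, then fixed, stained and imaged. Each value is the cleaved-PARP-positive fraction of nuclei relative to DMSO-treated wells, in %, so that 100 equals the control and higher values mean more apoptosis. Every drug was used at one fixed concentration, the higher of two screened. These are primary screening values without error estimates. Basal and induced levels differ widely between cell lines.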
An unselected part of the screen is shown.
A dash means that no value is listed here.

Drugs:
PD173074, 0.5 µM: CCN(CC)CCCCNc1ncc2cc(-c3cc(OC)cc(OC)c3)c(NC(=O)NC(C)(C)C)nc2n1
GSK0660, 5 µM: COC(=O)c1sccc1S(=O)(=O)Nc1ccc(Nc2ccccc2)cc1OC
FH535, 5 µM: Cc1cc([N+](=O)[O-])ccc1NS(=O)(=O)c1cc(Cl)ccc1Cl
veliparib, 7 µM: C[C@]1(c2nc3c(C(N)=O)cccc3[nH]2)CCCN1
fludarabine, 1 µM: Nc1nc(F)nc2c1ncn2[C@@H]1O[C@H](CO)[C@@H](O)[C@@H]1O
erlotinib, 4 µM: C#Cc1cccc(Nc2ncnc3cc(OCCOC)c(OCCOC)cc23)c1
nilutamide, 5 µM: CC1(C)NC(=O)N(c2ccc([N+](=O)[O-])c(C(F)(F)F)c2)C1=O
PLX4720, 0.4 µM: CCCS(=O)(=O)Nc1ccc(F)c(C(=O)c2c[nH]c3ncc(Cl)cc23)c1F
docetaxel, 0.0005 µM: CC(=O)O[C@@]12CO[C@@H]1C[C@H](O)[C@@]1(C)C(=O)[C@H](O)C3=C(C)[C@@H](OC(=O)[C@H](O)[C@@H](NC(=O)OC(C)(C)C)c4ccccc4)C[C@@](O)([C@@H](OC(=O)c4ccccc4)[C@H]21)C3(C)C

Combination | A101D | MEL-HO | IST-MEL1 | SK-MEL-28 | G-361 | IPC-298 | MZ2-MEL | COLO 792 | WM451Lu | WM115 | WM3526 | UACC-62 | COLO 800 | UACC-257 | 501mel
PD173074 + fludarabine | 257 | 205 | 38.2 | 1770 | 124 | 57.7 | 114 | 81.8 | 299 | 225 | 5210 | 27.4 | 131 | 1730 | 2930
PD173074 + GSK0660 | 48.8 | 92.6 | 28.5 | 119 | 62.0 | 43.8 | 21.2 | 98.8 | 107 | 104 | 119 | 141 | 155 | 82.6 | 60.4
fludarabine + docetaxel | 301 | 120 | 395 | 3860 | 1120 | 281 | 1090 | 399 | 482 | 543 | 3990 | 386 | 242 | 4610 | -
nilutamide + fludarabine | 137 | 92.5 | 144 | 2530 | 160 | 123 | 33.7 | 107 | 110 | 135 | 4350 | 111 | 107 | 6650 | -
PLX4720 + nilutamide | 185 | 69.5 | 237 | 118 | 205 | 25.6 | 75.9 | 83.9 | 76.5 | 78.9 | 175 | 195 | 120 | 71.6 | -
FH535 + PLX4720 | 245 | 287 | 429 | 98.0 | 475 | 123 | 83.3 | 53.2 | 275 | 164 | 162 | 222 | 14.6 | 141 | 129
nilutamide + veliparib | 62.3 | 67.9 | 120 | 125 | 53.2 | 68.6 | 103 | 180 | 40.1 | 74.1 | 86.7 | 116 | 141 | 74.1 | -
GSK0660 + fludarabine | 63.1 | 144 | 164 | 2980 | 115 | 41.2 | 49.6 | 107 | 46.1 | 59.9 | 2630 | 27.3 | 129 | 986 | 1670
erlotinib + FH535 | 70.2 | 84.8 | 174 | 169 | 210 | 43.0 | 110 | 340 | 139 | 59.8 | 160 | 146 | 71.6 | 111 | 44.2
nilutamide + docetaxel | 198 | 81.7 | 105 | 847 | 1350 | 1210 | 1680 | 2150 | 500 | 1740 | 2480 | 175 | 229 | 217 | -
FH535 + GSK0660 | 76.9 | 242 | 188 | 49.0 | 449 | 82.7 | 109 | 101 | 49.7 | 45.0 | 91.2 | 65.8 | 158 | 212 | 190
erlotinib + PD173074 | 93.7 | 112 | 62.7 | 28.9 | 78.9 | 56.9 | 389 | 221 | 189 | 77.6 | 97.2 | 131 | 272 | 21.9 | 117
veliparib + docetaxel | 108 | 109 | 510 | 477 | 1780 | 237 | 895 | 1800 | 699 | 2320 | 2500 | 658 | 125 | 216 | -
docetaxel + PLX4720 | 237 | 116 | 259 | 352 | 1100 | 349 | 355 | 550 | 140 | 1660 | 1500 | 429 | 237 | 49.8 | -
erlotinib + nilutamide | 137 | 120 | 124 | 58.3 | 125 | 46.4 | 100 | 251 | 71.5 | 84.3 | 241 | 185 | 133 | 52.2 | -
FH535 + docetaxel | 389 | 181 | 112 | 861 | 558 | 465 | - | 552 | 921 | 682 | 1160 | 268 | 593 | 134 | -
veliparib + FH535 | 337 | 38.4 | 137 | 146 | 275 | 153 | 33.6 | 255 | 174 | 141 | 158 | 56.4 | 170 | 129 | 64.5
veliparib + GSK0660 | 48.0 | 46.4 | 62.2 | 87.7 | 63.9 | 44.2 | 15.2 | 92.0 | 37.8 | 230 | 31.1 | 105 | 116 | 22.1 | 85.7
nilutamide + GSK0660 | 37.8 | 44.2 | 24.5 | 92.3 | 118 | 87.4 | 76.1 | 49.0 | 79.3 | 51.5 | 96.0 | 29.5 | 86.8 | 21.7 | 126
GSK0660 + docetaxel | 36.4 | 155 | 128 | 576 | 824 | 196 | 315 | 673 | 972 | 687 | 782 | 293 | 106 | 43.7 | 608
erlotinib + veliparib | 112 | 71.8 | 200 | 162 | 156 | 79.4 | 66.5 | 586 | 53.5 | 284 | 206 | 337 | 141 | 43.8 | -
veliparib + PLX4720 | 100 | 96.2 | 77.1 | 149 | 188 | 41.0 | 186 | 47.9 | 244 | 108 | 283 | 508 | 148 | 170 | -
erlotinib + fludarabine | 105 | 236 | 156 | 1550 | 112 | 184 | 77.4 | 228 | 43.4 | 465 | 2150 | 293 | 46.8 | 6210 | -
FH535 + PD173074 | 46.4 | 41.6 | 101 | 179 | 558 | 181 | 45.9 | 223 | 79.1 | 74.9 | 185 | 59.0 | 78.9 | 51.8 | 80.3
PD173074 + veliparib | 90.0 | 43.8 | 48.7 | 124 | 81.2 | 286 | 76.5 | 91.2 | 112 | 83.0 | 58.9 | 201 | 84.4 | 22.8 | 220
erlotinib + GSK0660 | 176 | 50.5 | 124 | 148 | 27.6 | 97.3 | 66.5 | 162 | 73.0 | 215 | 159 | 43.8 | 149 | 11.4 | 205
fludarabine + veliparib | 67.1 | 109 | 183 | 2660 | 170 | 51.2 | 48.4 | 124 | 55.7 | 301 | 2880 | 164 | 68.8 | 5570 | -
PLX4720 + PD173074 | 248 | 138 | 170 | 89.8 | 235 | 44.5 | 98.9 | 83.1 | 118 | 49.1 | 104 | 289 | 72.7 | 21.4 | 56.5
nilutamide + PD173074 | 39.6 | 81.0 | 57.5 | 135 | 80.9 | 41.1 | 121 | 59.4 | 101 | 196 | 42.2 | 366 | 106 | 27.3 | 376
fludarabine + FH535 | 155 | 152 | 223 | 386 | 666 | 107 | 61.6 | 76.4 | 162 | 158 | 1540 | 112 | 59.4 | 638 | 691
PD173074 + docetaxel | 236 | 318 | 217 | 674 | 504 | 349 | 229 | 626 | 368 | 223 | 1270 | 342 | 308 | 198 | 269
docetaxel + erlotinib | 181 | 135 | 200 | 1210 | 768 | 670 | 2030 | 1420 | 415 | 2370 | 1150 | 362 | 210 | 236 | -
PLX4720 + GSK0660 | 139 | 243 | 196 | 205 | 142 | 54.3 | 32.5 | 49.6 | 405 | 105 | 156 | 261 | 92.3 | 53.6 | 55.3

Some entries from above, unchanged:

Combination,A101D,MEL-HO,IST-MEL1,SK-MEL-28,G-361,IPC-298,MZ2-MEL,COLO 792,WM451Lu,WM115,WM3526,UACC-62,COLO 800,UACC-257,501mel
fludarabine + veliparib,67.1,109,183,2660,170,51.2,48.4,124,55.7,301,2880,164,68.8,5570,-
nilutamide + docetaxel,198,81.7,105,847,1350,1210,1680,2150,500,1740,2480,175,229,217,-